Results deposited as PubChem BioAssay AID1259279 (Sanger Institute, 2017)

Assay: 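Kinase-wide knock-down seeking synergy with BYL719, cetuximab or trametinib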 (primary screen)
System: LS180 human colorectal cancer cells
Reagents: siRNA pool against human genes
Treatment: anchor drug BYL719 at 1 µM, cetuximab at 5 µg/ml or trametinib at 10 nM, or DMSO vehicle only
Detection: 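Cell viability versus a non-targeting pool, as a fraction and as a robust z-score from replicate means, plus a synergy score for each of three drugs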
Reading the numbers: viability z-score, no drug: higher = more viable cells after knock-down; viability, no drug: higher = more viable cells; synergy score with BYL719 and synergy score with cetuximab and synergy score with trametinib: higher = stronger synthetic lethal synergy with drug
Hit rule: 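Essential (active) calls need a no-drug viability z-score lower than -3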
Meaning of the calls: active = essential (knock-down alone cuts viability); inactive = no change without drug
This is an unselected part of 794 reagents tested. Of all reagents, 11 (1.4%) got an active call. 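Calls reflect knock-down alone in the vehicle arm, not drug synergy.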 A number with no mark means an inactive call. Viability is capped at 1. Not stated in the record: the amount of reagent, the time to read-out.

| target gene | viability z-score, no drug | viability, no drug (fraction) | synergy score with BYL719 | synergy score with cetuximab | synergy score with trametinib |
| --- | --- | --- | --- | --- | --- |
| PNCK (pregnancy up-regulated nonubiquitous CaM kinase) | 0.86 | 1 | 0.00919 | -0.0178 | 0.13 |
| APC (APC regulator of Wnt signaling pathway) | 0.0902 | 0.916 | -0.137 | -0.203 | 0.049 |
| TWF2 (twinfilin actin binding protein 2) | -0.106 | 0.895 | 0.0683 | -0.0693 | 0.127 |
| HK2 (hexokinase 2) | -1.48 | 0.745 | 0.00213 | -0.115 | -0.0309 |
| HIPK2 (homeodomain interacting protein kinase 2) | 0.000392 | 0.906 | -0.0188 | 0.0413 | -0.0633 |
| SMAD4 (SMAD family member 4) | 0.647 | 0.977 | -0.0124 | 0.0139 | 0.0755 |
| PRKD3 (protein kinase D3) | -1.53 | 0.74 | -0.00505 | -0.11 | -0.00297 |
| MPP3 (MAGUK p55 scaffold protein 3) | -2.31 | 0.655 | -0.0773 | -0.0487 | 0.0368 |
| CAMK2D (calcium/calmodulin dependent protein kinase II delta) | 0.86 | 1 | -0.118 | -0.166 | -0.122 |
| PDGFRL (platelet derived growth factor receptor like) | -0.816 | 0.817 | -0.0543 | -0.109 | -0.178 |
| FGFRL1 (fibroblast growth factor receptor like 1) | 0.86 | 1 | 0.00401 | 0.013 | 0.0908 |

2 entries from above, sorted by “synergy score with BYL719”, lowest first.
| target gene | viability z-score, no drug | viability, no drug (fraction) | synergy score with BYL719 | synergy score with cetuximab | synergy score with trametinib |
| --- | --- | --- | --- | --- | --- |
| HK2 (hexokinase 2) | -1.48 | 0.745 | 0.00213 | -0.115 | -0.0309 |
| TWF2 (twinfilin actin binding protein 2) | -0.106 | 0.895 | 0.0683 | -0.0693 | 0.127 |

Further records follow:
| target gene | viability z-score, no drug | viability, no drug (fraction) | synergy score with BYL719 | synergy score with cetuximab | synergy score with trametinib |
| --- | --- | --- | --- | --- | --- |
| MASTL (microtubule associated serine/threonine kinase like) | 0.86 | 1 | -0.0551 | -0.0864 | -0.0882 |
| MAPK8 (mitogen-activated protein kinase 8) | 0.86 | 1 | -0.16 | -0.13 | 0.0593 |
| BRDT (bromodomain testis associated) | 0.86 | 1 | -0.103 | -0.0827 | 0.0178 |
| FGFR1 (fibroblast growth factor receptor 1) | -0.797 | 0.819 | -0.0337 | -0.171 | 0.0229 |
| CLK3 (CDC like kinase 3) | -0.481 | 0.854 | -0.114 | -0.0787 | -0.102 |
| PTPN11 (protein tyrosine phosphatase non-receptor type 11) | 0.518 | 0.963 | -0.077 | -0.197 | -0.00962 |
| DLG4 (discs large MAGUK scaffold protein 4) | 0.713 | 0.984 | -0.0522 | -0.111 | -0.11 |
| PIK3C2B | 0.793 | 0.993 | -0.0131 | -0.0236 | 0.0538 |
| NRAS (NRAS proto-oncogene, GTPase) | 0.86 | 1 | -0.0164 | -0.0681 | 0.00146 |
